{"source": "patent US7655678B2", "about": "“Pharmaceutical composition for the management of tumors” (Council of Scientfic & Industrial Research, priority 2004, dated 2010)", "origin": "cited, not measured here", "tested_on": "mouse skin papillomas", "conditions": "in vivo; cited from earlier work", "note": "At least one compound was matched to its structure with a doubt left.", "data": [{"compound": "CC1=C(/C=C/C(C)=C/C=C/C(C)=C/C(=O)O)C(C)(C)CCC1", "note": "[retinoic acid]", "values": [{"measurement": "development of mouse skin papillomas", "result": "reduced the development of mouse skin papillomas to some extent"}]}]}
